Results are given in words; binding and its absence hold for the method and conditions named. In cells and extracts the contact can be indirect. Some results given as binding are weak or reduced against the parent protein; the word gives no strength.
Target: T1, S100 calcium-binding protein A11 (mouse (endogenous in 4T1)) (UniProt P50543)
T1 sequence: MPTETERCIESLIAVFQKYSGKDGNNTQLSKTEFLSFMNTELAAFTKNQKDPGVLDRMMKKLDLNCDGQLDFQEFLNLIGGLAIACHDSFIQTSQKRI
Test: co-IP; co-immunoprecipitation from 4T1 cells, detected by immunoblot; which antibody precipitated is not told

By UniProt entry, the sequences of proteins in these tests, tags left out.
UniProt Q9CQW9: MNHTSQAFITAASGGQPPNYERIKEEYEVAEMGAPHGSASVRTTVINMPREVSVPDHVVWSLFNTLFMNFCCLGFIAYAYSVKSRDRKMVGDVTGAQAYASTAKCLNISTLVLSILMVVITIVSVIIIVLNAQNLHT

**Q.** With IFITM3 (from UniProt Q9CQW9 1-137) as the substance, how does the binding read?
**A.** The binding was “binds”.

From publication PMC11758215
